Assay [1] addresses Tse8 (type six exported 8), purified untagged (P. aeruginosa) (UniProt Q9HWL8). In words: far-Western, overlay or dot blot.
Assay [2] addresses T1, VgrG1b, bacterial two-hybrid fusion (P. aeruginosa) (UniProt Q9I737).
T1 sequence: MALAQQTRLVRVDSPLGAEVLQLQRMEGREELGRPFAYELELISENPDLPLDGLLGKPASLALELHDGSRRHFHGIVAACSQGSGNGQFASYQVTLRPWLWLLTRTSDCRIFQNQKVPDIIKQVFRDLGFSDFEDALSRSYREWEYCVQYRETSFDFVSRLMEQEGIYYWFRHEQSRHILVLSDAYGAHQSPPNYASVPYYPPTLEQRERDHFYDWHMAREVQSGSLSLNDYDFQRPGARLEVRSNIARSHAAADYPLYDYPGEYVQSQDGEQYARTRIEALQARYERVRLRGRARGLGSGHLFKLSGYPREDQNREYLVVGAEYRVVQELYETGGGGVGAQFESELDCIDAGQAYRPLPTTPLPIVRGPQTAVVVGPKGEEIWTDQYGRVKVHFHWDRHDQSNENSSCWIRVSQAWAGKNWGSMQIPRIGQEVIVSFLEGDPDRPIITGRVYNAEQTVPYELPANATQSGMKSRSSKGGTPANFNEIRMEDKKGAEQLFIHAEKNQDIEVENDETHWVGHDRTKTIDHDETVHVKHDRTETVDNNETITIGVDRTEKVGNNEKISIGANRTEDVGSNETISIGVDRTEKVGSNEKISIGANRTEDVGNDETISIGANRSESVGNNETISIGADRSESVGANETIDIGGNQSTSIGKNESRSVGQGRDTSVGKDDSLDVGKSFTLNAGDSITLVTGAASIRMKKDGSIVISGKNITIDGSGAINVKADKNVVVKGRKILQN
As to the kind of experiment: two-hybrid.

The chains behind the UniProt entries cited, without tags or fusion partners.
UniProt Q9I741, whole entry: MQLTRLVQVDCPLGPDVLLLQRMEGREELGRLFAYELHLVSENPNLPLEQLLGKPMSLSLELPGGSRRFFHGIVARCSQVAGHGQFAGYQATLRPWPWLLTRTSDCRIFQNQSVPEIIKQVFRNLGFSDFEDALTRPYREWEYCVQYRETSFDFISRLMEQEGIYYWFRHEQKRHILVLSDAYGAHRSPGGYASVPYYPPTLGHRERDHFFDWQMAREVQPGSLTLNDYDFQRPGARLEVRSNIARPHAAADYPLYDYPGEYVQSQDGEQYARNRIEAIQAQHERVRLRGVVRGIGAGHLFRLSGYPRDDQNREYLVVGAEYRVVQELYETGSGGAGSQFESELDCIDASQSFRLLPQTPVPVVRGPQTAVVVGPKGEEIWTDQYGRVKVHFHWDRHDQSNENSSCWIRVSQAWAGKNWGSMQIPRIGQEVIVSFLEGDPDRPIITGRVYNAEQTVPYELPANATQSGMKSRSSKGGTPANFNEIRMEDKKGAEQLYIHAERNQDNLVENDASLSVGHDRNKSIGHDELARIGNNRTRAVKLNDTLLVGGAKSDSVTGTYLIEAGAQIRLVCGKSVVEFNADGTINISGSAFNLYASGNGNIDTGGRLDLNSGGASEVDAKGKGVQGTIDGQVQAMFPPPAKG

Assay [3] concerns the target VgrG1a, bacterial two-hybrid fusion (P. aeruginosa) (UniProt Q9I741). In words: two-hybrid.
In a further assay the target is Tsi8-His (P. aeruginosa) (UniProt Q9HWL7). In words: pull-down.
The target of assay [4] is Tse8 (type six exported 8), purified untagged (P. aeruginosa) (UniProt Q9HWL8). In words: far-Western, overlay or dot blot. This is another data set of the same source.

Where two headings read alike, the source gives them in different places. These are yes or no findings as the source states them, for the method shown. For some assays here: Binding calls can cover weak binding; strength is not graded here. For some assays here: Tags and fused reporters may be left off the sequences shown.

Consider GatA-V5 (from UniProt Q9HVT8 1-484), for which the binding result in assay [1] was “no binding”.

Consider His-GatB (from UniProt Q9HVT7), for which, in assay [1], the binding result is given as “binds”.

For “Tse8, bacterial two-hybrid fusion (from UniProt Q9HWL8)”, the binding entry was “no binding” in assay [2] and “binds” in assay [3].

Take Tse8-HA-Strep (from UniProt Q9HWL8): in the assay with Tsi8-His (P. aeruginosa), the binding result is on record as “binds”.

Turning to VgrG1a-V5 (from UniProt Q9I741 1-643), the binding entry in assay [1] is recorded as “binds”.

B1: VgrG1b-V5 (protein, UniProt Q9I737 1-741)
chain: MALAQQTRLVRVDSPLGAEVLQLQRMEGREELGRPFAYELELISENPDLPLDGLLGKPASLALELHDGSRRHFHGIVAACSQGSGNGQFASYQVTLRPWLWLLTRTSDCRIFQNQKVPDIIKQVFRDLGFSDFEDALSRSYREWEYCVQYRETSFDFVSRLMEQEGIYYWFRHEQSRHILVLSDAYGAHQSPPNYASVPYYPPTLEQRERDHFYDWHMAREVQSGSLSLNDYDFQRPGARLEVRSNIARSHAAADYPLYDYPGEYVQSQDGEQYARTRIEALQARYERVRLRGRARGLGSGHLFKLSGYPREDQNREYLVVGAEYRVVQELYETGGGGVGAQFESELDCIDAGQAYRPLPTTPLPIVRGPQTAVVVGPKGEEIWTDQYGRVKVHFHWDRHDQSNENSSCWIRVSQAWAGKNWGSMQIPRIGQEVIVSFLEGDPDRPIITGRVYNAEQTVPYELPANATQSGMKSRSSKGGTPANFNEIRMEDKKGAEQLFIHAEKNQDIEVENDETHWVGHDRTKTIDHDETVHVKHDRTETVDNNETITIGVDRTEKVGNNEKISIGANRTEDVGSNETISIGVDRTEKVGSNEKISIGANRTEDVGNDETISIGANRSESVGNNETISIGADRSESVGANETIDIGGNQSTSIGKNESRSVGQGRDTSVGKDDSLDVGKSFTLNAGDSITLVTGAASIRMKKDGSIVISGKNITIDGSGAINVKADKNVVVKGRKILQN
Regarding B1, the binding result in assay [4] is recorded as “no binding”.

B2: GatC-HA (protein, UniProt Q9HVT9 1-96)
chain: MALERSDVEKIAHLARLGLSEADLPRTTETLNNILGLIDQMQAVDTSGVEPLAHPLEATQRLRPDAVTETDHRDAYQTIAPAVEEGLYLVPKVIES
On to B2, for which the binding result in assay [4] is “binds”.
